Several values for one entry are separate records, joined by “and”; a condition that tells them apart may be missing. Identical values can stand only once.
Test system: rat anti-collagen IgG1 antibodies
Test: CIA model: rat anti-collagen IgG1 antibodies in serum at day 21
Assay type: in vivo, Lewis rat
Conditions: day 21 serum
[1] = 3 mg/kg, fold 1000, individual animals, 3 mg/kg
[2] = 10 mg/kg, fold 1000, individual animals, 10 mg/kg
[3] = 30 mg/kg, fold 1000, individual animals, 30 mg/kg
[4] = reference group (Dexamethasone or GSK620), fold 2000, individual animals

Compound | Average OD450 nm [1] | Calculated O.D. [1] | OD450 nm (first reading) [1] | OD450 nm (second reading) [1] | Average OD450 nm [2] | Calculated O.D. [2] | OD450 nm (first reading) [2] | OD450 nm (second reading) [2] | Average OD450 nm [3] | Calculated O.D. [3] | OD450 nm (first reading) [3] | OD450 nm (second reading) [3] | Average OD450 nm [4] | Calculated O.D. [4] | OD450 nm (first reading) [4] | OD450 nm (second reading) [4]
CNC(=O)c1[nH]c(C(=O)NC2CCC2)cc1O[C@@H](C)c1ccccc1 [Example 101, N^5-cyclobutyl-N^2-methyl-3-(1-phenylethoxy)-1H-pyrrole-2,5-dicarboxamide] | 0.1350 and 0.1190 and 0.0577 and 0.2351 and 0.1310 and 0.0800 and 0.0703 and 0.2312 | 0.0080 | 0.1334 and 0.1187 and 0.0532 and 0.2278 and 0.1281 and 0.0789 and 0.0717 and 0.2381 | 0.1366 and 0.1192 and 0.0621 and 0.2424 and 0.1339 and 0.0811 and 0.0689 and 0.2243 | 0.4734 and 0.1603 and 0.2159 and 0.0570 and 0.1860 and 0.0967 and 0.0602 and 0.0572 | 0.0073 and 0.0075 | 0.4650 and 0.1629 and 0.2259 and 0.0591 and 0.1978 and 0.0995 and 0.0617 and 0.0588 | 0.4817 and 0.1576 and 0.2059 and 0.0548 and 0.1741 and 0.0939 and 0.0586 and 0.0555 | 0.0524 and 0.0503 and 0.0477 and 0.0657 and 0.1029 and 0.0732 and 0.0570 and 0.0752 | 0.0027 and 0.0006 and −0.0020 and 0.0074 | 0.0504 and 0.0486 and 0.0474 and 0.0630 and 0.1069 and 0.0770 and 0.0563 and 0.0734 | 0.0543 and 0.0519 and 0.0479 and 0.0684 and 0.0989 and 0.0693 and 0.0577 and 0.0769 |  |  |  | 
CNC(=O)c1cc(C(=O)NC2CC2)cn(Cc2ccccc2)c1=O [GSK620] |  |  |  |  |  |  |  |  |  |  |  |  | 0.1059 and 0.1162 and 0.0510 and 0.0591 and 0.1383 and 0.0674 and 0.1068 and 0.1190 | 0.0014 and 0.0094 | 0.1048 and 0.1158 and 0.0510 and 0.0597 and 0.1344 and 0.0652 and 0.1051 and 0.1186 | 0.1070 and 0.1165 and 0.0510 and 0.0584 and 0.1422 and 0.0696 and 0.1085 and 0.1193

— patent publication US20260000642A1 (Tay Therapeutics Limited, priority 2022, published 2026)
